Source: paper PMC5293587

B1: Flag-tagged HEY2 (hairy/enhancer-of-split related with YRPW motif 2) (protein, UniProt Q9UBP5 1-337)
chain: MKRPCEETTSESDMDETIDVGSENNYSGQSTSSVIRLNSPTTTSQIMARKKRRGIIEKRRRDRINNSLSELRRLVPTAFEKQGSAKLEKAEILQMTVDHLKMLQATGGKGYFDAHALAMDFMSIGFRECLTEVARYLSSVEGLDSSDPLRVRLVSHLSTCATQREAAAMTSSMAHHHHPLHPHHWAAAFHHLPAALLQPNGLHASESTPCRLSTTSEVPPAHGSALLTATFAHADSALRMPSTGSVAPCVPPLSTSLLSLSATVHAAAAAATAAAHSFPLSFAGAFPMLPPNAAAAVAAATAISPPLSVSATSSPQQTSSGTNNKPYRPWGTEVGAF
B2: Flag-tagged NONO (Non-Pou Domain Containing, Octamer-Binding) (protein, UniProt Q15233 1-471)
chain: MQSNKTFNLEKQNHTPRKHHQHHHQQQHHQQQQQQPPPPPIPANGQQASSQNEGLTIDLKNFRKPGEKTFTQRSRLFVGNLPPDITEEEMRKLFEKYGKAGEVFIHKDKGFGFIRLETRTLAEIAKVELDNMPLRGKQLRVRFACHSASLTVRNLPQYVSNELLEEAFSVFGQVERAVVIVDDRGRPSGKGIVEFSGKPAARKALDRCSEGSFLLTTFPRPVTVEPMDQLDDEEGLPEKLVIKNQQFHKEREQPPRFAQPGSFEYEYAMRWKALIEMEKQQQDQVDRNIKEAREKLEMEMEAARHEHQVMLMRQDLMRRQEELRRMEELHNQEVQKRKQLELRQEEERRRREEEMRRQQEEMMRRQQEGFKGTFPDAREQEIRMGQMAMGGAMGINNRGAMPPAPVPAGTPAPPGPATMMPDGTLGLTPPTTERFGQAATMEGIGAIGGTPPAFNRAAPGAEFAPNKRRRY

Assays:
GST-HEY1 (full-length) = test: pull-down; GST fusion proteins purified and bound to Sepharose beads, incubated with whole cell extracts of transfected U2OS cells in NETN buffer (20 mM Tris/HCl pH 8.0, 1 mM EDTA, 0.5% Nonidet P-40, 100 mM NaCl); western blot of bound proteins; only the target purified
GST-HEY1-S68D = test: as above

binding (GST-HEY1 (full-length)) | binding (GST-HEY1-S68D) | Binder
binds |  | B1
binds | binds | B2

Results are given in words; binding and its absence hold for the method and conditions named. In cells and extracts the contact can be indirect. Binding calls can cover weak binding; strength is not graded here. Sequences can lack the tags named with a protein.
